# Results deposited as PubChem BioAssay AID1224830 (NIAID, 2016).
# Test: 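Regulators of TLR4 signalling towards TNF-alpha in macrophage-like cells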 (primary screen)
# Cells: human THP-1 monocytic leukaemia cells, TNF dual-luciferase reporter clone, PMA-differentiated to macrophage-like cells
# Reagents: siRNA pool against human genes, 50 nM
# Timing: LPS for 4 h, given about 3 days after siRNA transfection
# Treatment: bacterial LPS (TLR4 ligand), 10 ng/ml
# Detection: 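TNF firefly reporter luminescence divided by renilla, normalised to the plate median, then turned into a robust z-score for each replicate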
# Reading the numbers: TNF reporter robust z-score: higher = stronger TNF reporter response to LPS
# Call rule: 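Each well counts as active if its z-score is over 2.8 or under -1.5; controls are left without a call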
# This is an unselected part of about 18,000 reagents. About 2,900 of all reagents (16%) count as active. 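Calls are made per well; low scores hint the gene aids the LPS response, high scores that it dampens it.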 Reagents against one gene are numbered here. Repeated entries: four replicate wells of each siRNA pool. Reagent sequences are not shown.
gene symbol,pool no.,TNF reporter robust z-score,call
FUT8 (fucosyltransferase 8),1,-0.35,inactive
FUT8 (fucosyltransferase 8),1,-0.1,inactive
FUT8 (fucosyltransferase 8),1,-0.71,inactive
FUT8 (fucosyltransferase 8),1,-0.15,inactive
PANK2 (pantothenate kinase 2),1,-1.22,inactive
PANK2 (pantothenate kinase 2),1,-0.93,inactive
PANK2 (pantothenate kinase 2),1,-1,inactive
PANK2 (pantothenate kinase 2),1,-0.83,inactive
PEX1 (peroxisomal biogenesis factor 1),1,-0.48,inactive
PEX1 (peroxisomal biogenesis factor 1),1,0.1,inactive
PEX1 (peroxisomal biogenesis factor 1),1,-0.26,inactive
PEX1 (peroxisomal biogenesis factor 1),1,-0.31,inactive
CLEC3A (C-type lectin domain family 3 member A),1,-1.03,inactive
CLEC3A (C-type lectin domain family 3 member A),1,0.16,inactive
CLEC3A (C-type lectin domain family 3 member A),1,-0.8,inactive
CLEC3A (C-type lectin domain family 3 member A),1,-1.06,inactive
PLIN5 (perilipin 5),1,-0.75,inactive
PLIN5 (perilipin 5),1,-0.55,inactive
PLIN5 (perilipin 5),1,-0.66,inactive
PLIN5 (perilipin 5),1,-0.79,inactive
LHFPL2 (LHFPL tetraspan subfamily member 2),1,0.17,inactive
LHFPL2 (LHFPL tetraspan subfamily member 2),1,-0.32,inactive
LHFPL2 (LHFPL tetraspan subfamily member 2),1,-0.22,inactive
LY6G6D (lymphocyte antigen 6 family member G6D),1,-0.64,inactive
LY6G6D (lymphocyte antigen 6 family member G6D),1,-0.1,inactive
LY6G6D (lymphocyte antigen 6 family member G6D),1,-0.06,inactive
LY6G6D (lymphocyte antigen 6 family member G6D),1,-1.63,active
BCORL1 (BCL6 corepressor like 1),1,-0.42,inactive
BCORL1 (BCL6 corepressor like 1),1,-0.5,inactive
BCORL1 (BCL6 corepressor like 1),1,-0.1,inactive
BCORL1 (BCL6 corepressor like 1),1,-0.77,inactive
SSUH2 (ssu-2 homolog),1,0.22,inactive
SSUH2 (ssu-2 homolog),1,-0.58,inactive
SSUH2 (ssu-2 homolog),1,0.15,inactive
SSUH2 (ssu-2 homolog),1,1.57,inactive
RBMS2 (RNA binding motif single stranded interacting protein 2),1,0.24,inactive
RBMS2 (RNA binding motif single stranded interacting protein 2),1,-0.27,inactive
RBMS2 (RNA binding motif single stranded interacting protein 2),1,-0.13,inactive
RBMS2 (RNA binding motif single stranded interacting protein 2),1,0.55,inactive
DEFB125 (defensin beta 125),1,-0.46,inactive
DEFB125 (defensin beta 125),1,-0.27,inactive
DEFB125 (defensin beta 125),1,-0.85,inactive
DEFB125 (defensin beta 125),1,-0.03,inactive
STRN4 (striatin 4),1,0.34,inactive
STRN4 (striatin 4),1,1,inactive
STRN4 (striatin 4),1,1.51,inactive
STRN4 (striatin 4),1,2.36,inactive
RTL6 (retrotransposon Gag like 6),1,-1.75,active
RTL6 (retrotransposon Gag like 6),1,-0.43,inactive
RTL6 (retrotransposon Gag like 6),1,-0.96,inactive
RTL6 (retrotransposon Gag like 6),1,-0.28,inactive
ITGB4 (integrin subunit beta 4),1,0.74,inactive
ITGB4 (integrin subunit beta 4),1,1.7,inactive
ITGB4 (integrin subunit beta 4),1,1.74,inactive
ITGB4 (integrin subunit beta 4),1,1.61,inactive
VCY1B (variable charge Y-linked 1B),1,1.73,inactive
VCY1B (variable charge Y-linked 1B),1,1.27,inactive
VCY1B (variable charge Y-linked 1B),1,-0.17,inactive
VCY1B (variable charge Y-linked 1B),1,-0.35,inactive

Records above whose gene name begins with V or v (4):
gene symbol,pool no.,TNF reporter robust z-score,call
VCY1B (variable charge Y-linked 1B),1,1.73,inactive
VCY1B (variable charge Y-linked 1B),1,1.27,inactive
VCY1B (variable charge Y-linked 1B),1,-0.17,inactive
VCY1B (variable charge Y-linked 1B),1,-0.35,inactive

More entries follow.
gene symbol,pool no.,TNF reporter robust z-score,call
NF1 (neurofibromin 1),1,-0.6,inactive
NF1 (neurofibromin 1),1,-0.89,inactive
NF1 (neurofibromin 1),1,-0.42,inactive
NF1 (neurofibromin 1),1,0.1,inactive
GPRIN3 (GPRIN family member 3),1,1.34,inactive
GPRIN3 (GPRIN family member 3),1,-0.34,inactive
GPRIN3 (GPRIN family member 3),1,-0.04,inactive
GPRIN3 (GPRIN family member 3),1,1.04,inactive
YOD1 (YOD1 deubiquitinase),1,-1.12,inactive
YOD1 (YOD1 deubiquitinase),1,-0.08,inactive
YOD1 (YOD1 deubiquitinase),1,-1.57,active
YOD1 (YOD1 deubiquitinase),1,-1.41,inactive
NMNAT2 (nicotinamide nucleotide adenylyltransferase 2),1,2.48,inactive
NMNAT2 (nicotinamide nucleotide adenylyltransferase 2),1,3.22,active
NMNAT2 (nicotinamide nucleotide adenylyltransferase 2),1,3.51,active
NMNAT2 (nicotinamide nucleotide adenylyltransferase 2),1,5.85,active
"RAB23 (RAB23, member RAS oncogene family)",1,-0.4,inactive
"RAB23 (RAB23, member RAS oncogene family)",1,-0.14,inactive
"RAB23 (RAB23, member RAS oncogene family)",1,0.21,inactive
"RAB23 (RAB23, member RAS oncogene family)",1,-0.26,inactive
FANCE (FA complementation group E),1,-0.94,inactive
FANCE (FA complementation group E),1,-1.32,inactive
FANCE (FA complementation group E),1,-1.57,active
FANCE (FA complementation group E),1,0.51,inactive
SPATA7 (spermatogenesis associated 7),1,-0.73,inactive
SPATA7 (spermatogenesis associated 7),1,0.24,inactive
SPATA7 (spermatogenesis associated 7),1,1.36,inactive
SPATA7 (spermatogenesis associated 7),1,0.15,inactive
AUTS2 (activator of transcription and developmental regulator AUTS2),1,0.82,inactive
AUTS2 (activator of transcription and developmental regulator AUTS2),1,1.02,inactive
AUTS2 (activator of transcription and developmental regulator AUTS2),1,0.36,inactive
AUTS2 (activator of transcription and developmental regulator AUTS2),1,1.53,inactive
FGF19 (fibroblast growth factor 19),1,-0.41,inactive
FGF19 (fibroblast growth factor 19),1,-0.19,inactive
FGF19 (fibroblast growth factor 19),1,0.83,inactive
FGF19 (fibroblast growth factor 19),1,0.97,inactive
MAN2B1 (mannosidase alpha class 2B member 1),1,-0.8,inactive
MAN2B1 (mannosidase alpha class 2B member 1),1,2.6,inactive
MAN2B1 (mannosidase alpha class 2B member 1),1,0.25,inactive
MAN2B1 (mannosidase alpha class 2B member 1),1,1.1,inactive
HIGD1A (HIG1 hypoxia inducible domain family member 1A),1,0.49,inactive
HIGD1A (HIG1 hypoxia inducible domain family member 1A),1,1.39,inactive
HIGD1A (HIG1 hypoxia inducible domain family member 1A),1,2.33,inactive
HIGD1A (HIG1 hypoxia inducible domain family member 1A),1,1.24,inactive
AUNIP (aurora kinase A and ninein interacting protein),1,-1.35,inactive
AUNIP (aurora kinase A and ninein interacting protein),1,-1.28,inactive
AUNIP (aurora kinase A and ninein interacting protein),1,-1.16,inactive
AUNIP (aurora kinase A and ninein interacting protein),1,-1.01,inactive
MECOM (MDS1 and EVI1 complex locus),1,0.24,inactive
MECOM (MDS1 and EVI1 complex locus),1,-0.99,inactive
MECOM (MDS1 and EVI1 complex locus),1,0.04,inactive
MECOM (MDS1 and EVI1 complex locus),1,0.66,inactive
MECOM (MDS1 and EVI1 complex locus),2,1.89,inactive
MECOM (MDS1 and EVI1 complex locus),2,1.96,inactive
MECOM (MDS1 and EVI1 complex locus),2,1.27,inactive
MECOM (MDS1 and EVI1 complex locus),2,2.26,inactive
